Source: PubChem BioAssay AID2685 (National Center for Advancing Translational Sciences (NCATS), 2010)
About 2,100 (0.66%) of roughly 320,000 compounds were called active. The shares of active, inactive and inconclusive entries below differ from those in the screen. The call rests on the fitted dose curve; in most records, active means well fitted inhibition curve with a large enough effect in the signal ratio, with a control signal flat (not every such curve was filed as active); inconclusive means small, poorly fitted or top-dose-only effect, or effect the other way, or a change in a side signal; inactive means flat fitted curve, though single readings scatter; the % refers to the signal ratio. Where the call is inconclusive, the potency comes from a doubtful curve fit.

Assay: qHTS Assay for Lipid Storage Modulators in Drosophila S3 Cells
Conditions: BODIPY lipid droplet fluorescence, 18-24 h, cells fed with added oleic acid; lipid storage change, negative = inhibition: at 46.1 µM (top of the series) unless noted
Method in brief: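 Laser-scanning cytometry quantifies lipid droplet accumulation (500–530 nm total intensity; droplet/cell object ratio) in oleic acid-fed (400 uM added) Drosophila S3 cells treated with a concentration series. 20 uM Triacsin C defined 100% inhibition.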
On the % scale 0 is the no-effect control and ±100 the full control effect; potency means the concentration at half of the fitted maximal effect.

Lipid storage change, negative = inhibition, inconclusive:
Cc1ccc(-c2nc3c(c(SCC(=O)Nc4cccc(C(=O)O)c4)n2)Cc2cccc(C)c2O3)cc1 18.9%
COc1ccc(S(=O)(=O)N2CCN(C(=O)/C=C/c3ccco3)CC2)cc1
CCCc1cc(=O)[nH]c(SCC(=O)NC(=O)NC2CCCC2)n1 19.9%
Cc1ccc(Nc2ccc(S(=O)(=O)N3CCOCC3)cc2[N+](=O)[O-])c(C)c1 -61.5%
CCOC(=O)c1[nH]c2ccc(OC)cc2c1NC(=O)C(C)N1CCC2(CC1)OCCO2 (stereo not drawn) 17%
Cc1ccc(N=Cc2c(C)[nH]n(-c3ccccc3)c2=O)nc1 19.5%
Cc1ccc2nc(NC(=O)C3CCN(S(=O)(=O)c4cc([N+](=O)[O-])ccc4Cl)CC3)sc2c1 21.9%
CC(=O)Nc1ccc(S(=O)(=O)NNC(=O)COc2cc(C)ccc2C(C)C)cc1 -8.44%
CC1(C2CC2)NC(=O)N(CC(=O)N2CCN(c3ccccc3)CC2)C1=O (stereo not drawn) -2%
CSc1nc2ccc(NC(=O)C3=NNC(=O)CC3)cc2s1 58.1%
CC1CCCCN1CCCNC(=O)Cn1c(=O)c2cccn2c2ccccc21 (stereo not drawn) 62%
Cc1ccc(-c2nnn(CC(=O)N(CC(=O)NC3CCCC3)c3cccc(F)c3)n2)o1 33.7%
CCN(CC)S(=O)(=O)c1cccc(NC(=O)CN(C)C2CCCCC2)c1 31.9%
CC(=O)NC(Cc1ccccc1F)C(=O)NC1CCN(S(=O)(=O)c2ccccc2)CC1 (stereo not drawn) 56%
CCOC(=O)c1cn(CC)c2ccc(S(=O)(=O)N3CCC(C)CC3)cc2c1=O 13.7%
CC(=O)N1C=CN(C(C)=O)C(c2cn(C)c3ccccc23)C1c1cn(C)c2ccccc12 (stereo not drawn) 41.2%
CSCCC(NC(=O)c1ccco1)C(=O)OC(C)C(=O)NC(=O)NC1CCCCC1 (stereo not drawn) 26.4%
O=C(O)/C(=C\c1ccc(Cl)c([N+](=O)[O-])c1)c1ccc(S(=O)(=O)N2CCCCC2)s1 10.9%
CCOc1ccccc1/C=C/C(=O)c1ccc(Cl)cc1 55.5%
O=C(O)Cc1ccc(NC(=O)c2ccc(NC(=O)c3ccco3)cc2)cc1 36.7%
O=C1CCc2cc(S(=O)(=O)N3CCN(c4ccccc4)CC3)cc3c2N1CCC3 11.4%
CC(C)(CN1CCN(c2ccccc2)CC1)NS(=O)(=O)c1ccccc1 1.97%
Cc1nc2ccccn2c1C(=O)Nc1ccc(Cl)cc1 26.9%
NC(=O)CCS(=O)(=O)c1ccccc1 42.6%
CC(C)(C)c1ccc(S(=O)(=O)NCc2ccc(C(=O)N3CCOCC3)cc2)cc1 2.54%
COc1ccc(/C=C(/NC(=O)c2ccccc2)C(=O)N2CCC(C)CC2)cc1 -89%
Cc1ccc(C(=O)CC(C(=O)O)n2cnc([N+](=O)[O-])n2)cc1 (stereo not drawn) 7.76%
N#C/C(=C\c1ccc(-c2ccccc2Cl)o1)C(=O)Nc1nc2ccccc2s1 11%

Random excerpt: 5 entries already listed.
Lipid storage change, negative = inhibition, inconclusive:
COc1ccc(/C=C(/NC(=O)c2ccccc2)C(=O)N2CCC(C)CC2)cc1 -89%
Cc1ccc(-c2nnn(CC(=O)N(CC(=O)NC3CCCC3)c3cccc(F)c3)n2)o1 33.7%
CCOC(=O)c1[nH]c2ccc(OC)cc2c1NC(=O)C(C)N1CCC2(CC1)OCCO2 (stereo not drawn) 17%
Cc1nc2ccccn2c1C(=O)Nc1ccc(Cl)cc1 26.9%
CCN(CC)S(=O)(=O)c1cccc(NC(=O)CN(C)C2CCCCC2)c1 31.9%

Following part.

Lipid storage change, negative = inhibition, inactive:
COc1ccccc1C(=O)NC(=O)COC(=O)c1oc2ccccc2c1C -2%
O=C(Nc1ccccc1)c1cccnc1NCCc1ccccc1 -0.163%
CCOC(=O)CS(=O)(=O)c1ccccc1 -0.796%
COC(=O)c1ccc(NC(=O)CSc2nc(=O)n3cccc(C)c3n2)cc1 8.53%

Potency, active:
Cc1ccc(C)c(OCCOCCN2CCOCC2)c1 7.31 µM
CCCCNc1c(-c2ccc(-c3cccc(Cl)c3)cc2)nc2ccccn12 23.1 µM

Potency, inconclusive:
COc1ccc(NC2CCCN(C(=O)c3cc(CC(C)C)nc(N)n3)C2)cc1 (stereo not drawn) 6.51 µM [falling, single point]
CCNc1ccc(C(=O)OCC(=O)N2c3ccccc3NC(=O)C2(C)C)cc1[N+](=O)[O-] 0.0731 µM [activator, full curve, poor fit]
O=C(CNS(=O)(=O)c1cccs1)N1CCCC1 0.517 µM [falling, full curve, poor fit]
O=C(COC(=O)/C=C/c1ccc(F)cc1)Nc1ccccc1-c1ccccc1 2.06 µM [activator, partial curve]
COc1cccc(NC(=O)COC(=O)CCC2CCCC2)c1 0.82 µM [activator, full curve, poor fit]
NC(=O)C1(NC(=O)[C@@H]2CC3(CC(c4cccc(NC(=O)[C@@H]5CCC(=O)N5)c4)=NO3)CN2C(=O)c2ccccc2)CC1 (stereo partly drawn) 29.1 µM [activator, partial curve, poor fit]
O=C(/C=C/c1ccco1)Oc1cc(Br)cc(/C=N/NC(=O)c2ccccc2O)c1 20.6 µM [falling, single point]
O=C(Nc1cccc(S(=O)(=O)NC2=NCCC2)c1)c1ccccc1OC(F)F 0.82 µM [activator, full curve, poor fit]
Cc1noc(C)c1C(=O)OCC(=O)c1ccc[nH]1 0.82 µM [rising, single point]
CC(=O)c1ccc(Sc2nnnn2-c2ccccc2)c([N+](=O)[O-])c1 29.1 µM [falling, single point]
CC(=O)c1ccc(N2CCN(C(=O)c3ccc(C(=O)c4ccccc4)cc3)CC2)cc1 6.51 µM [activator, single point]
COCCNc1nc(SCc2ccccc2)nc2sc3c(c12)CCC3 29.1 µM [falling, single point]
Nc1ncnc2nc(N3CCN(C(=O)c4ccccc4)CC3)[nH]c12 0.411 µM [activator, full curve]
CN1CC(=O)NC1=NC(=O)c1ccc(Cl)c(S(=O)(=O)N2CCCCCC2)c1 23.1 µM [falling, partial curve]
